The target in this test is CFP10 (Rv3874), N-terminally his-tagged (M. tuberculosis) (UniProt P9WNK5). In words: pull-down.

The chains behind the UniProt entries cited, without tags or fusion partners. Residues count along the entry.
UniProt P9WNK5: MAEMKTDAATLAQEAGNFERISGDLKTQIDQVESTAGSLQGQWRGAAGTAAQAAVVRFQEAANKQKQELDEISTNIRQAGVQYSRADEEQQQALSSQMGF
UniProt P9WNK7, residues 2-95: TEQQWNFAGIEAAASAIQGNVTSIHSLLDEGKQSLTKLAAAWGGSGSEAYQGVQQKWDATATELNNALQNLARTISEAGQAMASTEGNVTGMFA

No constants are given. Whether binding was seen depends on the method and setting. Binding seen in cells or lysates may run through a third protein. Some entries that bind do so weakly or less than the wild type.

Here are results for 1 substance from publication PMC3076238, “Improved mycobacterial protein production using a Mycobacterium smegmatis groEL1ΔC expression strain” (BMC Biotechnology, 2011).

As for “ESAT6 (Rv3875) (from UniProt P9WNK7 2-95)”, the binding result was “binds”.
